Assay [1] addresses HA of H3N2 A/HK/1/68 (influenza A virus) (UniProt Q91MA7). The assay is described as follows: BLI (Octet). Background: In BLI a coated tip is dipped into the sample, and binding shifts an interference pattern.
In assay [2] the target is HA of B/Lee/40 (influenza B virus) (UniProt P03460). The assay is described as follows: BLI (Octet).

Amino acid sequences for entries named in this document (tags omitted). Residues count along the entry.
UniProt P03460, residues 16-552: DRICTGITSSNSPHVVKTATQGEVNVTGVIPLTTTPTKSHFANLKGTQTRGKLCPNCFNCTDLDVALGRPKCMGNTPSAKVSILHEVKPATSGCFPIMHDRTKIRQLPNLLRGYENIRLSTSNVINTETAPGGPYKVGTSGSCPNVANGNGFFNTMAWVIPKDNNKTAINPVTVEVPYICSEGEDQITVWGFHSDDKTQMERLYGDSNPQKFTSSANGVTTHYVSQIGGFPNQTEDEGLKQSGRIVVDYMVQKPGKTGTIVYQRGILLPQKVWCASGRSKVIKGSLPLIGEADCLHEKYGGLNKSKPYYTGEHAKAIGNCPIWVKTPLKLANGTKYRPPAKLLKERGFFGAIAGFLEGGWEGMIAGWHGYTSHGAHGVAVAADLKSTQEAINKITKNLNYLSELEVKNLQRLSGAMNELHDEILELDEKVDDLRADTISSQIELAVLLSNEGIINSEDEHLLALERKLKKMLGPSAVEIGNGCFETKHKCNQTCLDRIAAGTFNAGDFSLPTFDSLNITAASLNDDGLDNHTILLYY

The source of these data is patent US20190359693A1.

No constants are given. Whether binding was seen depends on the method and setting. Some entries that bind do so weakly or less than the wild type.

B1: SD1049 (VHH)
VHH: EVQLVESGGGLVQAGGSLRLSCAASGRTLSLYSVGWFRQAPGKEREFVATIGWNSGRTFYVDSMKGRFTISRDNAKNTVYLQMNDLKVEDTAVYYCAAAKGPLRLSNQADYWGQGTQVTVSS
For B1, the binding entry in assay [1] is “binds”.

B2: SD1086 (VHH)
VHH: EVQLVESGGGLVQAGGSLRLSCTASGSISSIDYMRWYRQYPGKHRELVATITSGGAADSRDSVKGRFTVSRGNAANTMYLQMNNLKPEDTAVYYCNAYGLEIGAHWGRGTQVTVSS
For B2, in assay [2], the binding entry is “binds”.

B3: SD1046 (VHH)
VHH: EVQLVESGGGLVQAGDSLRISCAASGRTLSIYSMGWFRQAPGKEREFVATIGWNSGRTFYPDSLKGRFTISRDNARNTLYLQMNNLRPEDTAVYYCAAAKGPLRLSSQADYWGQGTQVTVSS
Turning to B3, the binding entry in assay [1] was “binds”.

B4: SD1048 (VHH)
VHH: EVQLVESGGGVVQPGGSLRLSCVASGRTSSMYSIGWFRQAPGKEREFVAVIGWYSGRTFYTDSMKGRFTISRDNARNTVYLQMNSLKPEDTAVYYCAAANGPLRLSNQADYWGQGTQVTVSS
For B4, in assay [1], the binding entry was “binds”.
